Experimental data published in PMC8796119.
No constants are given. Whether binding was seen depends on the method and setting. Binding seen in cells or lysates may run through a third protein. A yes stands for co-enrichment or nearness to the bait. Other partners may have been found.

T1: PIWI (C. elegans) (UniProt P90786)
T1 sequence: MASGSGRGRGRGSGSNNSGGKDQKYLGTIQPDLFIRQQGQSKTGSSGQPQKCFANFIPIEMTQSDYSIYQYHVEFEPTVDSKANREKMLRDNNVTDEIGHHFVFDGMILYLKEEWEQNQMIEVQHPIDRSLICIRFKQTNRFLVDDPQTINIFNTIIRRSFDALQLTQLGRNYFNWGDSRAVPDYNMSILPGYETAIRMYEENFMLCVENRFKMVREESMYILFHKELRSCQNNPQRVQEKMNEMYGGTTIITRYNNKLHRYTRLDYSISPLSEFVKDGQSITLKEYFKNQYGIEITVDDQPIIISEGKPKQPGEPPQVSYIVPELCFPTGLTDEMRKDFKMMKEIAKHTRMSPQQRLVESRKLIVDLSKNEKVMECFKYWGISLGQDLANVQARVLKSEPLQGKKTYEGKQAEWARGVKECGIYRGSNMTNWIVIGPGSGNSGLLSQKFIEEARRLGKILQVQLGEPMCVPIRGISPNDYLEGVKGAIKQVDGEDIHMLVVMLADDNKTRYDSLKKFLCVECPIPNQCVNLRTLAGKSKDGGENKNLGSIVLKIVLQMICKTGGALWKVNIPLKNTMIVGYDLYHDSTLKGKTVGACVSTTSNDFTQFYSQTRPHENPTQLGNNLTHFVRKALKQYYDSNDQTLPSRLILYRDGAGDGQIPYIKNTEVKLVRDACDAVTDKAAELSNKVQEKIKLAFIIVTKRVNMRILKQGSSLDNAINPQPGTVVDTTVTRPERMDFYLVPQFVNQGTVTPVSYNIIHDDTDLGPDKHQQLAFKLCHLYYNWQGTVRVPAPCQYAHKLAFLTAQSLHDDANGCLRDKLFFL


Biological target: T1, PIWI (C. elegans)
Test: affinity purification with mass spectrometry; IP-mass spec of PIWI (Figure S2D; Barucci et al., 2020 cited); conditions not given

Binder	binding
MUT-16 (protein, UniProt O62011 1-1054) MSESDDDYPELDISDQYIDPLGIVVGPPPASYTETDREETPMQNRTEDDTNSYGNSSGEHDYDSYLDSGDDDFDVDAYYANDNMDEPPPETIPDNLIQNVIGRNDNADYDFSDASNPEIMKRDLQLFLSSSLLSNPLKFRSGYSSDELDDCLKSCMGYSLQVTAVLLLPPEIISQLPNDSKTEHAHALVRGGWLQSKEGAFFPVISDSERETVVSLMNGSEEQHKRQERKKKEADTFESEEKEIRTLLTFNMIAELLMAVRNEYSIRSVKYQILSTAYTNMVTGAAHANIFRKYKDILQLDPEKLWNNDWFKEYTNRGTLKKFLTTARFSEIVVSQANGKTVELYFRADDEGNRPVVLFTDEHIADVRNKWKTGNQRNQNYGSQGNYRAGGQRSDDRRGPQQRRNVIVPDPNYQPSTFAGGISNNADDDGSLQPTTSSHFNRNTDRSTSRPPRAPTSPVNRVMETDPLMGQGTSSGAPQRSAIPNPFGGAPALSRSTITNGNRGPSYGDRGERVQDVGDTTSDSEITSEGSYSDEDPEQKEIKRQRRKDKLKKKQERELRSREKHTKSKQQPPSKIETRFNTYKKKSESSATDTSNTPPVDTVNVALPTPVVESSSTTAAPSIPVSTRPEVVVPPENPAPLREVGNFYSKSNHDEDRRNVQLPFTPADTHKPIKVAPKEPVRNPLLKERPSANGFINRRLPSHPAPPPVNQSQPANQPMQTAVYQNSHPGAPYIPQQPTYQPQLPVQQPQPHQYAPQPIHHQQPIHQPMHGQQYPPVNQQQPIYQQPAPQYPPYNSIQNNPQHGPSPFNYSQVPQPAYNHVGQQPSHMSNQPHINQNGYQNSYNPNQGPTSSDPNYGCNPQFNHYGSRSVYHEDHSSQRRRSPDQFPPNPPEYDPHGNFKLADYERDRMTVGYSQNPHQFDHHGSHMPHQSQPQGYDNFNGNSAPYFNKNGGQSNHQPEAQRSFSVLSSNRQPSNRELIFQDGIEKELRDIILRYRSMNLTVLTVQELRTEVSRRPAIPRYIDIVQYIRDSSSVAIVERGDIEPYVVLKDDIRN	binds
HRDE-1 (protein, UniProt Q09249 1-1032) MADLLDKIMGSSSSNRIPKRDNRMNQDKDEPTSKRSAPMFSTPKSTTPIGRDSFATMDTMNVQMNMFPVDIKDMPHKIQRFQVDVIVCSSNGKQINANLGVLAAKGDVNSHNRRLAQYYIMRTVHDKLLVKFSGKSHHFLAYDCAATLYLPEGVYTGDDQEEVTLTIDDFPKEEWKFVSKLSRRKDDSYLVVLKPAGFVYTQGEVAQEEANRMELTRIIEIVTSQKLNNEDYLQFGNATFPRLSPPHSEPDAISEIRSGFAKVSRLSQNGGGKAFMTVDTKISPFYKDTSVIKFSSNKLSEMKGGGGGRGGYGRSDSRDSRGGYRGGRSDSRDFRGVYGNRGGNDRYRDESRGRRDMYDSRRDSGSSNGADYSPSDAAELEHAFGERGNTKRCIEEALKGLDVECTHLKGNLIRVSSIAENNAENTSFMMKDDKGEREVTVAEYFLLQYNIKLKYPRLPLVVSKRFKHESFFPMELLRIAPGQRIKVNKMSPTVQSAMTGRNASMPQHHVKLVQDILRDNLKLEQNKYMDAFGIKLMSTEPIQMTAKLLPPAQIKFKGQTYMPDMSRPAFRTQDKFVEPARIRKIGIVVFDNCIQMRQAEDFCDKLSNFCRDNGITVEKDSRDWSIRELNSSDSVAIQNLMKKWLDDRVDILVGIAREKKPDVHDILKYFEESIGLQTIQLCQQTVDKMMGGQGGRQTIDNVMRKFNLKCGGTNFFVEIPNAVRGKAVCSNNETLRKKLLEHVQFIGFEISHGASRTLFDRSRSQMDGEPSVVGVSYSLTNSTQLGGFTYLQTQKEYKLQKLDEFFPKCVRSYKEHSKTLPTRIVIYRVGAGEGNFNRVKEEVEEMRRTFDKIQPGYRPHLVVIIAQRASHARVFPSCISGNRATDQNIPSGTCVENVLTSYGYDEFILSSQTPLIGTVRPCKYTILVNDAKWSKNELMHLTYFRAFGHQVSYQPPSVPDVLYAAENLAKRGRNNYKIHQRYVNLQAVENRIIKDHSELINEDMREELAAAIVDEMSVAMNGMTIPKRNFWA	binds
